Source: publication PMC8978020
No constants are given. Whether binding was seen depends on the method and setting. In cells and extracts the contact can be indirect. Some binding calls cover weakened binding; strength is not graded here.

The chains behind the UniProt entries cited, without tags or fusion partners.
UniProt P04610: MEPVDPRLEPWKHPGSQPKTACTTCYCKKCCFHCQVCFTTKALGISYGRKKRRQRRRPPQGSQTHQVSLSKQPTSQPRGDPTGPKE
UniProt P12504: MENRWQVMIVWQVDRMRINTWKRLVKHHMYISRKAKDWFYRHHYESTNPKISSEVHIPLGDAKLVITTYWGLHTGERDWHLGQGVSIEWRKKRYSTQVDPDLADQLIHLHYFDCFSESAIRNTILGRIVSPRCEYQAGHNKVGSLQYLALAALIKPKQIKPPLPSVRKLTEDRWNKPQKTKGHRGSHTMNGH

Molecular target: GST Tat fusion protein (HIV-1 (pNL4-3)) (UniProt P04610)
Test: pull-down; GST Tat or GST alone bound to GST beads, incubated with in vitro-translated Vif for 2 h at 4°C; Western blot with Vif-specific antiserum; only the target purified

With “In vitro-synthesized HIV-1 Vif protein (from UniProt P12504 1-192)” as the substance, how does the binding read?
The binding was “binds”.
